We go through 1 substance from PMC11897865.

Sequences of proteins named here, by UniProt entry; tags and fusion partners are left off. A change or cut given only in a name is not applied to a line headed by its entry. Residues count along the entry.
UniProt P30543: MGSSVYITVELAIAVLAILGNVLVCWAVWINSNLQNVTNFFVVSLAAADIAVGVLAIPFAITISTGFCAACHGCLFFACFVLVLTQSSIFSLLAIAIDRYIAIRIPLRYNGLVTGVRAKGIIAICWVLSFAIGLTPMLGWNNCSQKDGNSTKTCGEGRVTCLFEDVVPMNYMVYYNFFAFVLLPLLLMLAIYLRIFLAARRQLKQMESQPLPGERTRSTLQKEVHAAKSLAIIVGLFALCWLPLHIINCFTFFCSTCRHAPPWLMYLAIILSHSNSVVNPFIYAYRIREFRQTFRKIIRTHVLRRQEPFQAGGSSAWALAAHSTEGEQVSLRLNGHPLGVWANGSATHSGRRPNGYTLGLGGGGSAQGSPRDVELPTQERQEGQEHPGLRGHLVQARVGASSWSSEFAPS
UniProt P31424, residues 21-1203: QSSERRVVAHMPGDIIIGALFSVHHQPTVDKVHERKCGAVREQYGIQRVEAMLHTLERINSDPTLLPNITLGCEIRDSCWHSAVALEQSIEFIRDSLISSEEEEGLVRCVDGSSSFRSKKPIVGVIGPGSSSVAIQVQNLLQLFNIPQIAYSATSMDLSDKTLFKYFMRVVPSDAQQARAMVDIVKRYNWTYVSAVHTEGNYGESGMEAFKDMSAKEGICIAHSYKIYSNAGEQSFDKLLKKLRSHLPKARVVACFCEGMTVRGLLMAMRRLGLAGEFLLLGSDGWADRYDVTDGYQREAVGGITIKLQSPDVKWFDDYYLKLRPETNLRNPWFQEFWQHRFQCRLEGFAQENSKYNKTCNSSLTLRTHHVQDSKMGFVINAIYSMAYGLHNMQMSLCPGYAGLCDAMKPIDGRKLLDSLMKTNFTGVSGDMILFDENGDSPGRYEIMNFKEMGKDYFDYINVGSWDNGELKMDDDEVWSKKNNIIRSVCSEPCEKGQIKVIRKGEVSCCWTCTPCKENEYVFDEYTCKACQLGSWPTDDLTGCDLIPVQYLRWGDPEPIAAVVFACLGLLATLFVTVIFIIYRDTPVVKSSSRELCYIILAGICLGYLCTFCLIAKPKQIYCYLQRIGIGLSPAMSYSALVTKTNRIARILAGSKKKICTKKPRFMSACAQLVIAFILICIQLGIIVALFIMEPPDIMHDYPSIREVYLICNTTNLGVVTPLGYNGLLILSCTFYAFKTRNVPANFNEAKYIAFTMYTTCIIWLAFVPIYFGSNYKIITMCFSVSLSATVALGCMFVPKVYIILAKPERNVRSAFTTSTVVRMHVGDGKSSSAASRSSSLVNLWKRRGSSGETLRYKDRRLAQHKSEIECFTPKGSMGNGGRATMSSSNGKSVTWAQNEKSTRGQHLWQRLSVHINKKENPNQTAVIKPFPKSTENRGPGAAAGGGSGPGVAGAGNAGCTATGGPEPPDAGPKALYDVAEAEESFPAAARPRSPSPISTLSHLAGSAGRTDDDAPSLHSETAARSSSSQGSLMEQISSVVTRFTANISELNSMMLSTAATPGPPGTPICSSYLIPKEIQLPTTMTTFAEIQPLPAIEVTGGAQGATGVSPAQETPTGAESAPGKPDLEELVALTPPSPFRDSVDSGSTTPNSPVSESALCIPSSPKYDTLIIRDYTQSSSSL

Results are given in words; binding and its absence hold for the method and conditions named. In cells and extracts the contact can be indirect. Here binding means that the protein was enriched with, or labelled near, the bait; the list need not be complete.

This assay has as its target Adenosine A2A receptor (rat (endogenous in primary rat microglia)) (UniProt P30543). The assay is described as follows: affinity purification with mass spectrometry; anti-A2aR antibody or IgG on Protein A/G magnetic beads, mixed with lysate of primary rat microglia treated with chronic hypoxia, rotated overnight at 4°C; SDS-PAGE and MS; proteins unique to the IP group taken as potential A2aR-binding proteins.

For the substance “mGluR5 (from UniProt P31424 21-1203) (receptor)”, the binding entry is listed as “binds”.
